Measurements as given in paper PMC10626665.
Results are given in words; binding and its absence hold for the method and conditions named. In cells and extracts the contact can be indirect. A yes stands for co-enrichment or nearness to the bait. Other partners may have been found.

Protein sequences, listed by entry. Tags and fused reporters are not part of them.
UniProt P46940: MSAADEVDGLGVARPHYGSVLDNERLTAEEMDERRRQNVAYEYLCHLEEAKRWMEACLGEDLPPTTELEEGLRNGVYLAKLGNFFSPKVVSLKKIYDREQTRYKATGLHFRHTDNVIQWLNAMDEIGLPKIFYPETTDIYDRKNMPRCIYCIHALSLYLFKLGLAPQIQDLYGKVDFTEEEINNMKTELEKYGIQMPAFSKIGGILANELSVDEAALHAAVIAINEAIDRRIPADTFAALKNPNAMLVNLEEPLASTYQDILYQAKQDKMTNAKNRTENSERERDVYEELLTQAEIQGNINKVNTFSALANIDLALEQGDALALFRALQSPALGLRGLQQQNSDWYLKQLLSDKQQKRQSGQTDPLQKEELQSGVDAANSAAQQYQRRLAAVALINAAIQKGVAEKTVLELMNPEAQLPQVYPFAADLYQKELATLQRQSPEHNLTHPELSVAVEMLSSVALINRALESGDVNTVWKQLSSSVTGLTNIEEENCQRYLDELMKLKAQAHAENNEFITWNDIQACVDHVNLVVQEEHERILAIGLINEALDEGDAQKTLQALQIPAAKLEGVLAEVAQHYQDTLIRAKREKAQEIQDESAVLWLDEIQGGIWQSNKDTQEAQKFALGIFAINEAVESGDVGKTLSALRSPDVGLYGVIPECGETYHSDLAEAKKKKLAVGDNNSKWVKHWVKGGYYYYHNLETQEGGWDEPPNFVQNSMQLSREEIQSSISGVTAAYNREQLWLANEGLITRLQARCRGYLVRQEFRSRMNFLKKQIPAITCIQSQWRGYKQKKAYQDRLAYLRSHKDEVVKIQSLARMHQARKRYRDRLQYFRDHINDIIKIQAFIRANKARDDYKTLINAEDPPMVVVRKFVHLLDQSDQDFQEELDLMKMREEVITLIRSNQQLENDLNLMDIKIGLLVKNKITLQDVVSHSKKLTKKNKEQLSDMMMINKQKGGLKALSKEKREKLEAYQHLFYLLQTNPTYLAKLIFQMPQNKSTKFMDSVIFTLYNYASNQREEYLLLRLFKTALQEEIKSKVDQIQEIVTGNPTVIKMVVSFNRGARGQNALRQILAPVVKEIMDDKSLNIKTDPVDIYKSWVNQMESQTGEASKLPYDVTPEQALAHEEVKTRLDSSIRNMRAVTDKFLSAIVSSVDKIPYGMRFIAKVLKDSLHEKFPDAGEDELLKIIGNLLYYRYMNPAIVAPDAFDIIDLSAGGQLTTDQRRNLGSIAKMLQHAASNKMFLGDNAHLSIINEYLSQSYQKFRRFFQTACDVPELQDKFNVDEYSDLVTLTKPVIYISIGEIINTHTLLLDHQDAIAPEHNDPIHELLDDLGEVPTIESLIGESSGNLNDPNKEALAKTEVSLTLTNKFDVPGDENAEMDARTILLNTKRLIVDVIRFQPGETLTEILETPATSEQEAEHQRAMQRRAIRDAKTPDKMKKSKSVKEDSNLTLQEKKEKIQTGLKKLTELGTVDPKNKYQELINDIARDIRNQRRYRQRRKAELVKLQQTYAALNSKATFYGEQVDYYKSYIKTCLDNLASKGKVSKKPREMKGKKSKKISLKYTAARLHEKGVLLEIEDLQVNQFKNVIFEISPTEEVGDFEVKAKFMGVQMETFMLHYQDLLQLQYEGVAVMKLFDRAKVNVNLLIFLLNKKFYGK

Target: T1, MYL9 (human (endogenous in primary CAFs)) (UniProt P24844)
T1 sequence: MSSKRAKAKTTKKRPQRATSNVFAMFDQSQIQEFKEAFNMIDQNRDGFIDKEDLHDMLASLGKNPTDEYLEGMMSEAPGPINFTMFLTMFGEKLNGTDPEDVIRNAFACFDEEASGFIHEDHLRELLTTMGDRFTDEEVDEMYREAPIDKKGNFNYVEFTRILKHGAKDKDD
Test: affinity purification with mass spectrometry; 'protein spectral analysis' of MYL9 partners; no method described

binding: binds
Substance: IQGAP1 (from UniProt P46940 1-1657)
